Results are given in words; binding and its absence hold for the method and conditions named. In cells and extracts the contact can be indirect. Some results given as binding are weak or reduced against the parent protein; the word gives no strength.

Chains of the proteins cited; added tags and fusions are not shown.
UniProt Q64259: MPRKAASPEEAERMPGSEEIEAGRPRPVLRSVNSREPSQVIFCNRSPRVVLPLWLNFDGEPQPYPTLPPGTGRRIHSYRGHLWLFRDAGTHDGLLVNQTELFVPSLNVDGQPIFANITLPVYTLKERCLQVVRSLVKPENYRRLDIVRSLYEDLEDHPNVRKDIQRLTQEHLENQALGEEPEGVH
UniProt O35800: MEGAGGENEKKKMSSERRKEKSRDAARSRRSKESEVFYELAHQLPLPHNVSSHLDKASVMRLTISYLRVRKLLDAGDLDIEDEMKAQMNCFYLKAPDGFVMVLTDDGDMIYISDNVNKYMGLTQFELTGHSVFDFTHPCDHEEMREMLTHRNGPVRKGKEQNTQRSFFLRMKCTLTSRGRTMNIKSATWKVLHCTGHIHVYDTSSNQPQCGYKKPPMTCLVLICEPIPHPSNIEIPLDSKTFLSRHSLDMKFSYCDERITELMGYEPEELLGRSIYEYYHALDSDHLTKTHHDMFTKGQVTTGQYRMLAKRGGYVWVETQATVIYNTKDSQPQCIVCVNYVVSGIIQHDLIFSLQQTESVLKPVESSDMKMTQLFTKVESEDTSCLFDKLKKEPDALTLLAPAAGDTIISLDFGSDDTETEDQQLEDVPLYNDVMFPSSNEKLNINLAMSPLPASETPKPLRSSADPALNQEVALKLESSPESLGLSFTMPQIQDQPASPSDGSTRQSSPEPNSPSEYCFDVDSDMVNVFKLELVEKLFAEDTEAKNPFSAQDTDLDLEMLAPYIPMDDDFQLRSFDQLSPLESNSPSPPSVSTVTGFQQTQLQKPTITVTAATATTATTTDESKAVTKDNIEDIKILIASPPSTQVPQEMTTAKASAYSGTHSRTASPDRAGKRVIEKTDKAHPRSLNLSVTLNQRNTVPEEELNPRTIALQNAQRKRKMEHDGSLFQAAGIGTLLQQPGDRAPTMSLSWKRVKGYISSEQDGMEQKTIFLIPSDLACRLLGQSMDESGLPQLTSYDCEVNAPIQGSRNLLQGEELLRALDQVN

The record followed here is paper PMC8445926.

For assay [1], the target named is T1, Insulin-like growth factor binding protein-1 (UniProt P21743).
T1 sequence: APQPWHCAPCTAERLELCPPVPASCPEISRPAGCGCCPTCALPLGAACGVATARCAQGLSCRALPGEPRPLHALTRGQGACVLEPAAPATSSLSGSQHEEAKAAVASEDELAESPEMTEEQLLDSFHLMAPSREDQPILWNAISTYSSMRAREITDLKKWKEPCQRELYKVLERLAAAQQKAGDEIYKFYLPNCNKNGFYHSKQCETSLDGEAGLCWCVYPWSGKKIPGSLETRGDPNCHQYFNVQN
The assay is described as follows: co-IP; H9c2 cells overexpressing HIF-1α (pcDNA3.1) and IGFBP-1 (adenovirus) for 48 h, normoxia; lysates precipitated with anti-IGFBP-1 antibody on Dynabeads (1 h, 4 °C), immunoblot for PHD2 and VHL. For orientation: Immunoblotting shows a protein as a band on a membrane.

For assay [2], the target named is von Hippel–Lindau (VHL) protein (rat (endogenous in H9c2)) (UniProt Q64259). The experiment in a line: co-IP; H9c2 cells overexpressing the same level of HIF-1α and different levels of IGFBP-1, normoxia; co-immunoprecipitation with anti-IGFBP-1, anti-VHL and anti-HIF-1α antibodies (Supplementary Fig. 3a, b).
Assay [3] concerns the target T1, Insulin-like growth factor binding protein-1. Described as above.

With HIF-1α (from UniProt O35800 1-825), the binding result in assay [1] was “no binding”; in assay [2], “binds”.
Take “von Hippel–Lindau (VHL) protein (from UniProt Q64259 1-185)”: the binding entry in assay [1] and in assay [3] was “binds” in each case.
